We go through 24 molecules from PubChem BioAssay AID330 (DTP/NCI, 2004).

The test system of this test is P388 leukemia ip, CD2F1 mice, survival T/C. Put plainly: NCI In Vivo Anticancer Drug Screen. Data for tumor model P388 Leukemia (intraperitoneal) in CD2F1 (CDF1) mice. To be noted: T/C endpoint: median survival time, higher T/C = longer survival.
[1] abbreviates: dose: 400.0 mg/kg/injection, schedule: Q01DX001 (ip), vehicle: Klucel (hydroxypropylcellulose) (HPC).
[2] abbreviates: dose: 240.0 mg/kg/injection, schedule: Q01DX005 (ip), vehicle: saline with Tween-80.
The mark [3] stands for this setting: dose: 100.0 mg/kg/injection, schedule: Q01DX005 (ip), vehicle: saline with Tween-80.
Setting [4] is: dose: 200.0 mg/kg/injection, schedule: Q01DX009 (ip), vehicle: saline.
The mark [5] stands for this setting: dose: 100.0 mg/kg/injection, schedule: Q01DX009 (ip), vehicle: saline with Tween-80.
[6] abbreviates: dose: 400.0 mg/kg/injection, schedule: Q04DX003 (ip), vehicle: saline with Tween-80.
Where [7] appears, read: dose: 200.0 mg/kg/injection, schedule: Q01DX005 (ip), vehicle: saline with Tween-80.
The mark [8] stands for this setting: dose: 100.0 mg/kg/injection, schedule: Q01DX009 (ip), vehicle: saline.

The list shows only some results of the screen, not a fair sample: it gathers tests that were run many times, whatever their T/C, doses with no T/C, and many T/C values between a quarter and a half above the control. Other doses and runs of a compound stand elsewhere. T/C: endpoint of the treated group in % of that of the vehicle group. Some entries give survivors of the animals treated and no T/C: the source holds a T/C of zero for them, seemingly a mark for toxic or unscored doses. Some survivor counts are full or nearly so, which does not show that the dose was tolerated: survival well below the control is almost never listed, so the zero probably covers shortened survival too. Counts of survivors are from the toxicity check (mostly the fifth day) where no day follows; animals may have died later. Schedule codes are those of the source, taken here to give the interval after Q, in days (D) or hours (H), and the number of doses after X. Where survival is the endpoint, the PubChem record calls one and a half times the control and up active, and a quarter to a half above the control has no call in these data; cut-offs in other NCI protocols can differ. Some entries were tested several times; the values are given in rising order. Some T/C values carry the count of animals alive at the toxicity check (mostly the fifth day); where none is given, no animal had died by that day.

As for `CCN(CC)CC[n+]1ccc2c(C)c3[nH]c4ccc(O)cc4c3c(C)c2c1`, the survivor count (dose: 25.0 mg/kg/injection, schedule: Q04DX003 (ip), vehicle: water) is listed as 3 of 5; the survivor count (dose: 50.0 mg/kg/injection, schedule: Q04DX003 (ip), vehicle: water) is given as 1 of 5; the survivor count (dose: 100.0 mg/kg/injection, schedule: Q04DX003 (ip), vehicle: saline) is recorded as 3 of 6; the survivor count (dose: 100.0 mg/kg/injection, schedule: Q04DX003 (ip), vehicle: suspension in saline) is 0 of 6; the survivor count (dose: 200.0 mg/kg/injection, schedule: Q04DX003 (ip), vehicle: saline) was 0 of 6; the survivor count (dose: 200.0 mg/kg/injection, schedule: Q04DX003 (ip), vehicle: suspension in saline) is reported as 1 of 6.
For `CNC(=O)OCc1c(COC(=O)NC)c(-c2ccc(C(F)(F)F)cc2)n(C)c1C`, the T/C runs as follows: (dose: 6.25 mg/kg/injection, schedule: Q01DX009 (ip), vehicle: distilled water + Tween-80) 131 % of control; (dose: 12.5 mg/kg/injection, schedule: Q01DX009 (ip), vehicle: distilled water + Tween-80, evaluated on day 30) 142 % of control; (dose: 12.5 mg/kg/injection, schedule: Q01DX009 (ip), vehicle: distilled water + Tween-80, evaluated on day 40) 141 % of control; (dose: 25.0 mg/kg/injection, schedule: Q01DX009 (ip), vehicle: distilled water + Tween-80, evaluated on day 30) 141 % of control; (dose: 25.0 mg/kg/injection, schedule: Q01DX009 (ip), vehicle: distilled water + Tween-80, evaluated on day 40) 149 % of control. Further, the survivor count was 6 of 6 (dose: 50.0 mg/kg/injection, schedule: Q01DX009 (ip), vehicle: distilled water + Tween-80); 1 of 6 (dose: 100.0 mg/kg/injection, schedule: Q01DX009 (ip), vehicle: distilled water + Tween-80); 0 of 6 (dose: 200.0 mg/kg/injection, schedule: Q01DX009 (ip), vehicle: distilled water + Tween-80).
For the molecule `CN(C)c1ccc(C2=CC(c3ccc(N(C)C)cc3)(c3ccc(C(F)(F)F)cc3)C=C(c3ccc(N(C)C)cc3)S2)cc1`, the survivor count under setting [1] was 6 of 6.
Regarding `C=C(Cl)C(=NC(C)(C)C)Nc1ccccc1`, under “dose: 200.0 mg/kg/injection, schedule: Q01DX005 (ip), vehicle: Klucel (hydroxypropylcellulose) (HPC)”, the survivor count was 3 of 6.
With `C[n+]1c(-c2cccc(OCCCCCCCCOc3cccc(-c4c5cc(N)ccc5c5ccc(N)cc5[n+]4C)c3)c2)c2cc(N)ccc2c2ccc(N)cc21`, the survivor count (dose: 3.0 mg/kg/injection, schedule: Q01DX009 (ip), vehicle: water) was 5 of 6; the survivor count (dose: 3.12 mg/kg/injection, schedule: Q01DX009 (ip), vehicle: water) is reported as 6 of 6; the survivor count (dose: 6.25 mg/kg/injection, schedule: Q01DX009 (ip), vehicle: water) is reported as 5 of 6; the survivor count (dose: 12.5 mg/kg/injection, schedule: Q01DX009 (ip), vehicle: water) was 0 of 6.
Turning to `Cn1c(O)c(N=O)c(=O)[nH]c1=S`, the survivor count by setting is: (dose: 50.0 mg/kg/injection, schedule: Q04DX002 (ip), vehicle: saline) 4 of 6; (dose: 100.0 mg/kg/injection, schedule: Q04DX002 (ip), vehicle: saline with Tween-80) 3 of 6; (dose: 200.0 mg/kg/injection, schedule: Q04DX002 (ip), vehicle: saline with Tween-80) 0 of 6; (dose: 400.0 mg/kg/injection, schedule: Q04DX002 (ip), vehicle: saline with Tween-80) 0 of 6.
Take `CCCCCCCCCCCCCCCCN1CCS(=O)(=O)CC1`: the survivor count (dose: 50.0 mg/kg/injection, schedule: Q01DX009 (ip), vehicle: Klucel (hydroxypropylcellulose) (HPC)) is 6 of 6.
For the molecule `Cc1cc2c(cc1C)[n+](=O)c1c(n2[O-])CCC1`, the survivor count under setting [2] was 6 of 6.
As to `CC1=C(C)C(=Nc2ccc(N(CCCl)CCCl)cc2)C=CC1=O`, the T/C by setting is: (dose: 50.0 mg/kg/injection, schedule: Q01DX001 (ip), vehicle: Klucel (hydroxypropylcellulose) (HPC)) 125 % of control [5 of 6 alive]; (dose: 100.0 mg/kg/injection, schedule: Q01DX001 (ip), vehicle: Klucel (hydroxypropylcellulose) (HPC)) 140 % of control; (dose: 200.0 mg/kg/injection, schedule: Q01DX001 (ip), vehicle: Klucel (hydroxypropylcellulose) (HPC)) 134 % of control; under setting [1], 141 % of control.
As for `Cc1ccc(-n2nc(C(O)C(O)C(O)CO)c3nc4cc(C)c(C)cc4nc32)cc1` (configuration not stated), the survivor count under setting [3] is given as 3 of 6.
As for `Cc1csc(=S)n1C`, the survivor count under setting [4] is listed as 6 of 6.
For `Cc1ccccc1-c1nc2c(N)nc(N)nc2nc1N`, the T/C reads like this: under setting [5], 140 % of control; under setting [6], 145 % of control; (dose: 600.0 mg/kg/injection, schedule: Q04DX003 (ip), vehicle: saline with Tween-80) 140 % of control.
For `ClCCN(CCCN(CCCl)c1ccccc1)c1ccccc1`, the T/C was 130 and 131 % of control (dose: 100.0 mg/kg/injection, schedule: Q01DX001 (ip), vehicle: saline with Tween-80); 140 % of control (dose: 200.0 mg/kg/injection, schedule: Q01DX001 (ip), vehicle: saline with Tween-80). For the same molecule, under “dose: 800.0 mg/kg/injection, schedule: Q01DX001 (ip), vehicle: saline with Tween-80”, the survivor count is recorded as 0 of 6.
`Cc1ccc(N=NN(C)C)cc1`: the T/C runs as follows: (dose: 50.0 mg/kg/injection, schedule: Q01DX009 (ip), vehicle: saline with Tween-80) 145 % of control; (dose: 75.0 mg/kg/injection, schedule: Q01DX009 (ip), vehicle: saline with Tween-80) 136 % of control. Further, the survivor count was 5 of 6 (dose: 100.0 mg/kg/injection, schedule: Q04DX003 (ip), vehicle: saline with Tween-80); 5 of 6 (dose: 200.0 mg/kg/injection, schedule: Q04DX003 (ip), vehicle: saline with Tween-80); 0 of 6 under setting [6].
Turning to `O=C1c2c(O)ccc(O)c2C(=O)c2c(NCCCO)ccc(NCCCO)c21`, the survivor count (dose: 160.0 mg/kg/injection, schedule: Q01DX009 (ip), vehicle: acid diluted with saline) is recorded as 6 of 6.
For `O=C(CN1CCN(CCO)CC1)N1c2ccccc2Sc2ccc(C(F)(F)F)cc21`, the survivor count (dose: 400.0 mg/kg/injection, schedule: Q04DX002 (ip), vehicle: saline) was 0 of 6.
On to `CC(C)=CCC(OC(=O)CC(C)C)C1=CC(=O)c2c(O)ccc(O)c2C1=O` (configuration not stated), for which the survivor count (dose: 50.0 mg/kg/injection, schedule: Q01DX005 (ip), vehicle: saline with Tween-80) is 5 of 5; the survivor count under setting [3] is recorded as 0 of 5; the survivor count under setting [7] is recorded as 0 of 5.
Consider `CN1CCN(CN2C(=O)C3C4C=CC(C3C2=O)C2C(=O)N(CN3CCN(C)CC3)C(=O)C42)CC1` (configuration not stated), for which the T/C under setting [8] is 126 % of control and the T/C under setting [4] is 128 % of control. In addition, the survivor count (dose: 400.0 mg/kg/injection, schedule: Q01DX009 (ip), vehicle: saline) is 3 of 6.
In the case of `CCc1ccc[n+](-c2ccncc2CC)c1`, the survivor count reads like this: (dose: 120.0 mg/kg/injection, schedule: Q01DX005 (ip), vehicle: saline) 3 of 6; (dose: 240.0 mg/kg/injection, schedule: Q01DX005 (ip), vehicle: saline) 0 of 6.
On to `C1CN=C(N2CCCC2)C1`, for which the survivor count is given as 0 of 6 under setting [5] and 0 of 6 (dose: 200.0 mg/kg/injection, schedule: Q01DX009 (ip), vehicle: saline with Tween-80).
Take `CC(C)(C)C1CC[N+](=C(O[B-](F)(F)F)c2ccccc2)CC1` (configuration not stated): under setting [2], the survivor count is listed as 0 of 6.
In the case of `CCN(CC)CCNc1cccc2c(C)cc(=O)[nH]c12`, the survivor count under setting [7] is listed as 3 of 5.
As to `CN1CCCC1=O`, the survivor count is listed as 6 of 6 under setting [8] and 6 of 6 under setting [4].
Consider `O=S(=O)(n1ccnc1)C(F)(F)F`, for which the survivor count was 0 of 6 (dose: 100.0 mg/kg/injection, schedule: Q01DX001 (ip), vehicle: saline); 0 of 6 (dose: 200.0 mg/kg/injection, schedule: Q01DX001 (ip), vehicle: saline); 0 of 6 (dose: 400.0 mg/kg/injection, schedule: Q01DX001 (ip), vehicle: saline).
